From the supplement of paper PMC8728848
Some of the results follow.

Legend:
Test in all cases: glycan array binding signal (z-score within array); higher = stronger binding
Conditions in all cases: glycan notation: IUPAC condensed, linker removed
[1] = molecular target: Neu5Ac(a2-3)Gal(b1-4)GlcNAc(b1-6)GalNAc
Summary of the method: (§1)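 Glycan array data came from 3228 arrays in the Consortium for Functional Glycomics database, and only arrays with an available protein sequence were kept. Glycan names were put into IUPAC-condensed notation, and columns mapping to the same glycan were averaged. The binding signal is a within-array Z-score, averaged across arrays of one protein sequence run at different concentrations or buffers and across linkers. A negative Z-score can be read as non-binding.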

[2] = molecular target: Neu5Ac(a2-3)Gal(b1-4)GlcNAc(b1-6)[Gal(b1-3)]GalNAc
Summary of the method: as §1

[3] = molecular target: Neu5Ac(a2-3)Gal(b1-4)GlcNAc(b1-6)[Neu5Ac(a2-3)Gal(b1-3)]GalNAc
Summary of the method: as §1

[4] = molecular target: Neu5Ac(a2-3)Gal(b1-4)GlcNAc6S
Summary of the method: as §1

[5] = molecular target: Neu5Ac(a2-3)Gal(b1-4)[Fuc(a1-3)]GlcNAc
Summary of the method: as §1

[6] = molecular target: Neu5Ac(a2-3)Gal(b1-4)[Fuc(a1-3)]GlcNAc(b1-2)Man
Summary of the method: as §1

[7] = molecular target: Neu5Ac(a2-3)Gal(b1-4)[Fuc(a1-3)]GlcNAc(b1-3)Gal
Summary of the method: as §1

[8] = molecular target: Neu5Ac(a2-3)Gal(b1-4)[Fuc(a1-3)]GlcNAc(b1-3)Gal(b1-4)GlcNAc
Summary of the method: as §1

[9] = molecular target: Neu5Ac(a2-3)Gal(b1-4)[Fuc(a1-3)]GlcNAc(b1-3)Gal(b1-4)[Fuc(a1-3)]GlcNAc(b1-3)Gal(b1-4)[Fuc(a1-3)]GlcNAc
Summary of the method: as §1

[10] = molecular target: Neu5Ac(a2-3)Gal(b1-4)[Fuc(a1-3)]GlcNAc(b1-3)GalNAc
Summary of the method: as §1

[11] = molecular target: Neu5Ac(a2-3)Gal(b1-4)[Fuc(a1-3)]GlcNAc(b1-6)[Gal(b1-3)]GalNAc
Summary of the method: as §1

[12] = molecular target: Neu5Ac(a2-3)Gal(b1-4)[Fuc(a1-3)]GlcNAc(b1-6)[Neu5Ac(a2-3)Gal(b1-3)]GalNAc
Summary of the method: as §1

[13] = molecular target: Neu5Ac(a2-3)Gal(b1-4)[Fuc(a1-3)]GlcNAc6S
Summary of the method: as §1

[14] = molecular target: Neu5Ac(a2-3)Gal6S(b1-4)GlcNAc
Summary of the method: as §1

[15] = molecular target: Neu5Ac(a2-3)Gal6S(b1-4)[Fuc(a1-3)]GlcNAc
Summary of the method: as §1

Neu5Ac(a2-3)GalNAc = molecular target: Neu5Ac(a2-3)GalNAc
Summary of the method: as §1

[16] = molecular target: Neu5Ac(a2-3)GalNAc(b1-4)GlcNAc
Summary of the method: as §1

[17] = molecular target: Neu5Ac(a2-3)[GalNAc(b1-4)]Gal(b1-4)Glc
Summary of the method: as §1

[18] = molecular target: Neu5Ac(a2-3)[GalNAc(b1-4)]Gal(b1-4)GlcNAc
Summary of the method: as §1

[19] = molecular target: Neu5Ac(a2-3)[GalNAc(b1-4)]Gal(b1-4)GlcNAc(b1-3)GalNAc
Summary of the method: as §1

[20] = molecular target: Neu5Ac(a2-3)[Neu5Ac(a2-6)]GalNAc
Summary of the method: as §1

Neu5Ac(a2-6)Gal = molecular target: Neu5Ac(a2-6)Gal
Summary of the method: as §1

[21] = molecular target: Neu5Ac(a2-6)Gal(b1-3)GlcNAc(b1-3)[Gal(b1-4)GlcNAc(b1-6)]Gal(b1-4)Glc
Summary of the method: as §1

Neu5Ac(a2-6)Gal(b1-4)Glc = molecular target: Neu5Ac(a2-6)Gal(b1-4)Glc
Summary of the method: as §1

[22] = molecular target: Neu5Ac(a2-6)Gal(b1-4)GlcNAc
Summary of the method: as §1

[23] = molecular target: Neu5Ac(a2-6)Gal(b1-4)GlcNAc(b1-2)Man
Summary of the method: as §1

[24] = molecular target: Neu5Ac(a2-6)Gal(b1-4)GlcNAc(b1-2)Man(a1-3)Man(b1-4)GlcNAc(b1-4)GlcNAc
Summary of the method: as §1

[25] = molecular target: Neu5Ac(a2-6)Gal(b1-4)GlcNAc(b1-2)Man(a1-3)[Gal(b1-4)GlcNAc(b1-2)Man(a1-6)]Man(b1-4)GlcNAc(b1-4)GlcNAc
Summary of the method: as §1

[26] = molecular target: Neu5Ac(a2-6)Gal(b1-4)GlcNAc(b1-2)Man(a1-3)[GlcNAc(b1-2)Man(a1-6)]Man(b1-4)GlcNAc(b1-4)GlcNAc
Summary of the method: as §1

[27] = molecular target: Neu5Ac(a2-6)Gal(b1-4)GlcNAc(b1-2)Man(a1-3)[GlcNAc(b1-4)][Neu5Ac(a2-6)Gal(b1-4)GlcNAc(b1-2)Man(a1-6)]Man(b1-4)GlcNAc(b1-4)GlcNAc
Summary of the method: as §1

[28] = molecular target: Neu5Ac(a2-6)Gal(b1-4)GlcNAc(b1-2)Man(a1-3)[Man(a1-6)]Man(b1-4)GlcNAc(b1-4)GlcNAc
Summary of the method: as §1

[29] = molecular target: Neu5Ac(a2-6)Gal(b1-4)GlcNAc(b1-2)Man(a1-3)[Neu5Ac(a2-3)Gal(b1-4)GlcNAc(b1-2)Man(a1-6)]Man(b1-4)GlcNAc(b1-4)GlcNAc
Summary of the method: as §1

[30] = molecular target: Neu5Ac(a2-6)Gal(b1-4)GlcNAc(b1-2)Man(a1-3)[Neu5Ac(a2-6)Gal(b1-4)GlcNAc(b1-2)Man(a1-6)]Man(b1-4)GlcNAc(b1-4)GlcNAc
Summary of the method: as §1

[31] = molecular target: Neu5Ac(a2-6)Gal(b1-4)GlcNAc(b1-2)Man(a1-3)[Neu5Ac(a2-6)Gal(b1-4)GlcNAc(b1-2)Man(a1-6)]Man(b1-4)GlcNAc(b1-4)[Fuc(a1-6)]GlcNAc
Summary of the method: as §1

[32] = molecular target: Neu5Ac(a2-6)Gal(b1-4)GlcNAc(b1-2)Man(a1-6)Man(b1-4)GlcNAc(b1-4)GlcNAc
Summary of the method: as §1

[33] = molecular target: Neu5Ac(a2-6)Gal(b1-4)GlcNAc(b1-2)Man(a1-6)[Gal(b1-4)GlcNAc(b1-2)Man(a1-3)]Man(b1-4)GlcNAc(b1-4)GlcNAc
Summary of the method: as §1

[34] = molecular target: Neu5Ac(a2-6)Gal(b1-4)GlcNAc(b1-2)Man(a1-6)[GlcNAc(b1-2)Man(a1-3)]Man(b1-4)GlcNAc(b1-4)GlcNAc
Summary of the method: as §1

[35] = molecular target: Neu5Ac(a2-6)Gal(b1-4)GlcNAc(b1-2)Man(a1-6)[Man(a1-3)]Man(b1-4)GlcNAc(b1-4)GlcNAc
Summary of the method: as §1

[36] = molecular target: Neu5Ac(a2-6)Gal(b1-4)GlcNAc(b1-2)[Neu5Ac(a2-6)Gal(b1-4)GlcNAc(b1-4)]Man(a1-3)[GlcNAc(b1-4)][Neu5Ac(a2-6)Gal(b1-4)GlcNAc(b1-2)[Neu5Ac(a2-6)Gal(b1-4)GlcNAc(b1-6)]Man(a1-6)]Man(b1-4)GlcNAc(b1-4)GlcNAc
Summary of the method: as §1

[37] = molecular target: Neu5Ac(a2-6)Gal(b1-4)GlcNAc(b1-2)[Neu5Ac(a2-6)Gal(b1-4)GlcNAc(b1-4)]Man(a1-3)[GlcNAc(b1-4)][Neu5Ac(a2-6)Gal(b1-4)GlcNAc(b1-4)Man(a1-6)]Man(b1-4)GlcNAc(b1-4)GlcNAc
Summary of the method: as §1

[38] = molecular target: Neu5Ac(a2-6)Gal(b1-4)GlcNAc(b1-2)[Neu5Ac(a2-6)Gal(b1-4)GlcNAc(b1-6)]Man(a1-6)[Neu5Ac(a2-6)Gal(b1-4)GlcNAc(b1-2)Man(a1-3)][GlcNAc(b1-4)]Man(b1-4)GlcNAc(b1-4)GlcNAc
Summary of the method: as §1

[39] = molecular target: Neu5Ac(a2-6)Gal(b1-4)GlcNAc(b1-3)Gal(b1-3)GlcNAc
Summary of the method: as §1

[40] = molecular target: Neu5Ac(a2-6)Gal(b1-4)GlcNAc(b1-3)Gal(b1-4)GlcNAc
Summary of the method: as §1

[41] = molecular target: Neu5Ac(a2-6)Gal(b1-4)GlcNAc(b1-3)Gal(b1-4)GlcNAc(b1-2)Man(a1-3)[Neu5Ac(a2-6)Gal(b1-4)GlcNAc(b1-3)Gal(b1-4)GlcNAc(b1-2)Man(a1-6)]GalNAc
Summary of the method: as §1

[42] = molecular target: Neu5Ac(a2-6)Gal(b1-4)GlcNAc(b1-3)Gal(b1-4)GlcNAc(b1-3)Gal(b1-4)GlcNAc
Summary of the method: as §1

B1: Aap arpt (Staphylococcus epidermidis) (protein)
chain: NNEAPQMSSTLQAEEGSNAEAPQSEPTKAEEGGNAEAAQSEPTKAEEGGNAEAPQSEPTKAEEGGNAEAAQSEPTKTEEGSNVKAAQSEPTKAEEGSNAEAPQSEPTKTEEGSNAKAAQSEPTKAEEGGNAEAAQSEPTKTEEGSNAEAPQSEPTKAEEGGYAEAPQSEPTKTEEGGNAEAPNVPTIKA
- glycan array binding signal (z-score) [1]: -0.433
- glycan array binding signal (z-score) [2]: 0.944
- glycan array binding signal (z-score) [3]: 1.62
- glycan array binding signal (z-score) [4]: -0.327
- glycan array binding signal (z-score) [5]: -0.468
- glycan array binding signal (z-score) [6]: 0.72
- glycan array binding signal (z-score) [7]: -0.164
- glycan array binding signal (z-score) [8]: -0.262
- glycan array binding signal (z-score) [9]: 0.998
- glycan array binding signal (z-score) [10]: 0.511
- glycan array binding signal (z-score) [11]: -0.496
- glycan array binding signal (z-score) [12]: -0.911
- glycan array binding signal (z-score) [13]: 0.521
- glycan array binding signal (z-score) [14]: -0.12
- glycan array binding signal (z-score) [15]: 0.034
- glycan array binding signal (z-score) (Neu5Ac(a2-3)GalNAc): -0.745
- glycan array binding signal (z-score) [16]: 0.469
- glycan array binding signal (z-score) [17]: 1.82
- glycan array binding signal (z-score) [18]: -0.204
- glycan array binding signal (z-score) [19]: -0.324
- glycan array binding signal (z-score) [20]: 0.657
- glycan array binding signal (z-score) (Neu5Ac(a2-6)Gal): -1.56
- glycan array binding signal (z-score) [21]: -1.04
- glycan array binding signal (z-score) (Neu5Ac(a2-6)Gal(b1-4)Glc): -1.1
- glycan array binding signal (z-score) [22]: -0.334
- glycan array binding signal (z-score) [23]: 1.84
- glycan array binding signal (z-score) [24]: 1.59
- glycan array binding signal (z-score) [25]: -0.638
- glycan array binding signal (z-score) [26]: -0.011
- glycan array binding signal (z-score) [27]: 0.284
- glycan array binding signal (z-score) [28]: 0.68
- glycan array binding signal (z-score) [29]: 0.503
- glycan array binding signal (z-score) [30]: -0.148
- glycan array binding signal (z-score) [31]: 1.93
- glycan array binding signal (z-score) [32]: 0.226
- glycan array binding signal (z-score) [33]: 0.156
- glycan array binding signal (z-score) [34]: 2.64
- glycan array binding signal (z-score) [35]: 0.224
- glycan array binding signal (z-score) [36]: -1.13
- glycan array binding signal (z-score) [37]: -0.548
- glycan array binding signal (z-score) [38]: -0.716
- glycan array binding signal (z-score) [39]: 0.451
- glycan array binding signal (z-score) [40]: -0.635
- glycan array binding signal (z-score) [41]: -0.269
- glycan array binding signal (z-score) [42]: 0.095
